No constants are given. Whether binding was seen depends on the method and setting. In cells and extracts the contact can be indirect. Binding calls can cover weak binding; strength is not graded here.

Amino acid sequences for entries named in this document (tags omitted). A change or cut given only in a name is not applied to a line headed by its entry.
UniProt P63277: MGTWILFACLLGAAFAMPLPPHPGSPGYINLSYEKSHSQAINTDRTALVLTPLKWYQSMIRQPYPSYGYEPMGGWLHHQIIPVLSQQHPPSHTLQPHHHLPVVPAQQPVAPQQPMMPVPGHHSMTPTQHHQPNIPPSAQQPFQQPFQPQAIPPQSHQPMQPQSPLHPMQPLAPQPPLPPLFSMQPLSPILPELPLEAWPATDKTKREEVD

Experiment [1] concerns the target T1, Recombinant mouse Ambn (ameloblastin) (mouse) (UniProt O55189).
T1 sequence: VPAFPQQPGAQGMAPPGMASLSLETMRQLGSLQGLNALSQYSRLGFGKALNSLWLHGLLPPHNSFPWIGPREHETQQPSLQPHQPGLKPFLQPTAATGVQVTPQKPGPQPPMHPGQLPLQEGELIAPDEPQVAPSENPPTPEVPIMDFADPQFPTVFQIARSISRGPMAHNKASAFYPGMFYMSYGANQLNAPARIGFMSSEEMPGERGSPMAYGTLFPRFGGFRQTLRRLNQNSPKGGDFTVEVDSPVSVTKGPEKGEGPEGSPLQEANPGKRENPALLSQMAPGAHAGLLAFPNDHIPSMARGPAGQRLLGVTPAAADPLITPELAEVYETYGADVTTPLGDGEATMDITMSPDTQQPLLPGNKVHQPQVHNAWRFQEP
Kind of experiment: co-IP; Pierce co-IP kit; 10 μg anti-Ambn antibody (AF3026) coupled to resin, 10 μg rAmbn bait bound overnight at 4°C, washed with Dulbecco's PBS, 10 μg prey (rAmel) bound 4 h at 4°C; eluate read by Western blot; both purified. (A western blot detects proteins with antibodies after separation by electrophoresis.)

Experiment [2] deals with Recombinant mouse Amel (amelogenin) (mouse) (UniProt P63277). Kind of experiment: co-IP; Pierce co-IP kit; rAmel with rAmbn, rAmbnΔ6 or rAmbnΔ5 (Figure 2A); which protein was bait is not stated; 10 μg bait, 10 μg prey, 4°C; eluate read by Western blot; both purified.
The target is the same in experiment [3]. Kind of experiment: co-IP; Pierce co-IP kit; 10 μg anti-Amel antibody coupled to resin, 10 μg rAmel bait bound overnight at 4°C, washed with Dulbecco's PBS, 10 μg prey (rAmbn) bound 4 h at 4°C; eluate read by Western blot; both purified.

On to “Recombinant mouse Amel (amelogenin) (from UniProt P63277-1)”, for which the binding entry in experiment [1] is “binds”.

B1: Recombinant mouse Ambn mutant with deletion of exon 6 (Ambn p.P104_V168del) (protein, UniProt O55189)
chain: VPAFPQQPGAQGMAPPGMASLSLETMRQLGSLQGLNALSQYSRLGFGKALNSLWLHGLLPPHNSFPWIGPREHETQQVPIMDFADPQFPTVFQIARSISRGPMAHNKASAFYPGMFYMSYGANQLNAPARIGFMSSEEMPGERGSPMAYGTLFPRFGGFRQTLRRLNQNSPKGGDFTVEVDSPVSVTKGPEKGEGPEGSPLQEANPGKRENPALLSQMAPGAHAGLLAFPNDHIPSMARGPAGQRLLGVTPAAADPLITPELAEVYETYGADVTTPLGDGEATMDITMSPDTQQPLLPGNKVHQPQVHNAWRFQEP
As for B1, the binding result in experiment [2] is “binds”.

B2: Recombinant mouse Ambn mutant with deletion of exon 5 (Ambn p.Y67_Q103del) (protein, UniProt O55189)
chain: VPAFPQQPGAQGMAPPGMASLSLETMRQLGSLQGLNALSQPSLQPHQPGLKPFLQPTAATGVQVTPQKPGPQPPMHPGQLPLQEGELIAPDEPQVAPSENPPTPEVPIMDFADPQFPTVFQIARSISRGPMAHNKASAFYPGMFYMSYGANQLNAPARIGFMSSEEMPGERGSPMAYGTLFPRFGGFRQTLRRLNQNSPKGGDFTVEVDSPVSVTKGPEKGEGPEGSPLQEANPGKRENPALLSQMAPGAHAGLLAFPNDHIPSMARGPAGQRLLGVTPAAADPLITPELAEVYETYGADVTTPLGDGEATMDITMSPDTQQPLLPGNKVHQPQVHNAWRFQEP
For B2, the binding result in experiment [2] is “no binding (tested: 10 μg prey protein)”.

B3: Recombinant mouse Ambn (ameloblastin) (protein, UniProt O55189 27-407)
chain: T1 sequence
In the case of B3, the binding entry in experiment [2] and in experiment [3] was “binds” in each case.

For the origin of these results see article PMC7786100.
